For some assays here: Expression values are those of the mRNA of the gene that encodes the peptide; a gene is named only where it was looked up.
Tests used:
[1] = test system: source genes (mRNA); assay: Gene and exon expression of source genes, TCGA tumor samples compared with normal tissue samples (Lonsdale, 2013) (Table 17); parameters: species or system human; conditions: for Over-expression category of source gene (target coverage), BLCA: BLCA = Bladder urothelial carcinoma (N = 408); for Over-expression category of source gene (target coverage), BLCA / Over-expression category of source gene (target coverage), CHOL / Over-expression category of source gene (target coverage), COAD / Over-expression category of source gene (target coverage), DLBC / Over-expression category of source gene (target coverage), ESCA / Over-expression category of source gene (target coverage), GBM / Over-expression category of source gene (target coverage), KICH / Over-expression category of source gene (target coverage), KIRC / Over-expression category of source gene (target coverage), KIRP / Over-expression category of source gene (target coverage), LAML / Over-expression category of source gene (target coverage), LGG / Over-expression category of source gene (target coverage), LIHC / Over-expression category of source gene (target coverage), LUAD / Over-expression category of source gene (target coverage), LUSC / Over-expression category of source gene (target coverage), OV / Over-expression category of source gene (target coverage), PAAD / Over-expression category of source gene (target coverage), PRAD / Over-expression category of source gene (target coverage), READ / Over-expression category of source gene (target coverage), SKCM / Over-expression category of source gene (target coverage), STAD / Over-expression category of source gene (target coverage), UCEC: same cutoff; for Over-expression category of source gene (target coverage), BRCA: BRCA = Breast cancer (N = 1104), tumors more than 2-fold above highest 75% percentile of normal tissues; for Over-expression category of source gene (target coverage), CHOL: CHOL = Cholangiocarcinoma (N = 36); for Over-expression category of source gene (target coverage), COAD: COAD = Colon and rectal adenocarcinoma (N = 462); for Over-expression category of source gene (target coverage), DLBC: DLBC = Lymphoid neoplasm diffuse large B-cell lymphoma (N = 48); for Over-expression category of source gene (target coverage), ESCA: ESCA = Esophageal cancer (N = 185); for Over-expression category of source gene (target coverage), GBM: GBM = Glioblastoma multiforme (N = 169); for Over-expression category of source gene (target coverage), KICH: KICH = Kidney chromophobe (N = 66); for Over-expression category of source gene (target coverage), KIRC: KIRC = Clear cell kidney carcinoma (N = 534); for Over-expression category of source gene (target coverage), KIRP: KIRP = Papillary kidney carcinoma (N = 291); for Over-expression category of source gene (target coverage), LAML: LAML = Acute Myeloid Leukemia (N = 173); for Over-expression category of source gene (target coverage), LGG: LGG = Lower grade glioma (N = 534); for Over-expression category of source gene (target coverage), LIHC: LIHC = Liver hepatocellular carcinoma (N = 374); for Over-expression category of source gene (target coverage), LUAD: LUAD = Lung adenocarcinoma (N = 517); for Over-expression category of source gene (target coverage), LUSC: LUSC = Lung squamous cell carcinoma (N = 503); for Over-expression category of source gene (target coverage), OV: OV = Ovarian serous cystadenocarcinoma (N = 309); for Over-expression category of source gene (target coverage), PAAD: PAAD = Pancreatic ductal adenocarcinoma (N = 179); for Over-expression category of source gene (target coverage), PRAD: PRAD = Prostate adenocarcinoma (N = 498); for Over-expression category of source gene (target coverage), READ: READ = Colon and rectal adenocarcinoma (N = 167); for Over-expression category of source gene (target coverage), SKCM: SKCM = Skin cutaneous melanoma (N = 473); for Over-expression category of source gene (target coverage), STAD: STAD = Stomach adenocarcinoma (N = 415); for Over-expression category of source gene (target coverage), UCEC: UCEC = Uterine corpus endometrial carcinoma (N = 546)
[2] = test system: source genes (mRNA); assay: Expression profiling of source genes by in-house RNASeq of tumor and normal tissues (Table 18, FIG. 2); parameters: species or system human; key: very highly over-expressed in tumors compared to a panel of normal tissues (+++); highly over-expressed in tumors compared to a panel of normal tissues (++); over-expressed in tumors compared to a panel of normal tissues (+); conditions: source gene of peptide; for Expression score BRCA: BRCA tumors vs panel of normal tissues; for Expression score NHL: non-Hodgkin lymphoma (N = 10) vs panel of normal tissues; for Expression score NSCLC: non-small cell lung cancer (N = 11) vs panel of normal tissues; for Expression score OC: ovarian cancer (N = 12) vs panel of normal tissues; for Expression score UEC: uterine cancer (N = 10) vs panel of normal tissues
[3] = test system: HLA-A*02; assay: Identification and relative LC-MS quantitation of HLA-A*02-presented tumor-associated peptides on tissue samples (presentation profiles, Tables 13A, 13B, 15, FIG. 1); parameters: species or system human; key to Presentation score NHL / Presentation score CLL / Presentation score BRCA / Presentation score AML / Presentation score GB / Presentation score NSCLC / Presentation score GBC_CCC / Presentation score UEC / Presentation score MEL / Presentation score OSCAR / Presentation score GC / Presentation score UBC / Presentation score OC / Presentation score RCC / Presentation score CRC / Presentation score PCA / Presentation score HCC / Presentation score PC / Presentation score SCLC: specifically presented on tumors (++++); very highly over-presented on tumors compared to a panel of normal tissues (+++); highly over-presented on tumors compared to a panel of normal tissues (++); over-presented on tumors compared to a panel of normal tissues (+); conditions: for Presentation score NSCLC: non-small cell lung cancer (N = 90) vs panel of normal tissues (N = 262); for Peptide Presentation on cancer entities: Table 13A, HLA-A*02-binding tumor-associated peptides, cancer entities on which the peptide was found presented

Substance | Over-expression category of source gene (target coverage), BLCA [1] | Over-expression category of source gene (target coverage), BRCA [1] | Over-expression category of source gene (target coverage), CHOL [1] | Over-expression category of source gene (target coverage), COAD [1] | Over-expression category of source gene (target coverage), DLBC [1] | Over-expression category of source gene (target coverage), ESCA [1] | Over-expression category of source gene (target coverage), GBM [1] | Over-expression category of source gene (target coverage), KICH [1] | Over-expression category of source gene (target coverage), KIRC [1] | Over-expression category of source gene (target coverage), KIRP [1] | Over-expression category of source gene (target coverage), LAML [1] | Over-expression category of source gene (target coverage), LGG [1] | Over-expression category of source gene (target coverage), LIHC [1] | Over-expression category of source gene (target coverage), LUAD [1] | Over-expression category of source gene (target coverage), LUSC [1] | Over-expression category of source gene (target coverage), OV [1] | Over-expression category of source gene (target coverage), UCEC [1] | Expression score UEC [2] | Presentation score NSCLC ([3]; HLA-A*02 peptides) | Peptide Presentation on cancer entities [3] | further results
241: peptide found in HEATR1 (gene looked up) (KTIQQLETV; listed as Homo sapiens) [compound 241] | A (>=50% of tumors above the cutoff) | A (>=50% of tumors above the cutoff) | A (>=50% of tumors above the cutoff) | A (>=50% of tumors above the cutoff) | A (>=50% of tumors above the cutoff) | A (>=50% of tumors above the cutoff) | A (>=50% of tumors above the cutoff) | A (>=50% of tumors above the cutoff) | A (>=50% of tumors above the cutoff) | A (>=50% of tumors above the cutoff) | A (>=50% of tumors above the cutoff) | A (>=50% of tumors above the cutoff) | A (>=50% of tumors above the cutoff) | A (>=50% of tumors above the cutoff) | A (>=50% of tumors above the cutoff) | A (>=50% of tumors above the cutoff) | A (>=50% of tumors above the cutoff) | + | ++++ | NSCLC, OC, NHL | Over-expression category of source gene (target coverage), PAAD [1]: A (>=50% of tumors above the cutoff); Over-expression category of source gene (target coverage), PRAD [1]: A (>=50% of tumors above the cutoff); Over-expression category of source gene (target coverage), READ [1]: A (>=50% of tumors above the cutoff); Over-expression category of source gene (target coverage), SKCM [1]: A (>=50% of tumors above the cutoff); Over-expression category of source gene (target coverage), STAD [1]: A (>=50% of tumors above the cutoff); Expression score BRCA [2]: +; Expression score OSCAR ([2]; esophageal cancer incl. gastric-esophageal junction (N = 11) vs panel of normal tissues): +; Expression score NHL [2]: +; Expression score NSCLC [2]: +; Expression score OC [2]: +; Expression score SCLC ([2]; small cell lung cancer (N = 10) vs panel of normal tissues): +; Presentation score NHL ([3]; HLA-A*02 peptides, non-Hodgkin lymphoma (N = 18) vs panel of normal tissues (N = 262)): ++++; Presentation score OC ([3]; HLA-A*02 peptides, ovarian cancer (N = 20) vs panel of normal tissues (N = 262)): ++++
242: peptide found in BCAT1 (gene looked up) (WLYGEDHQI; listed as Homo sapiens) [compound 242] |  |  |  |  | C (>=5% of tumors above the cutoff, but <20%) |  | B (>= 20% of tumors above the cutoff, but <50%) |  |  |  | B (>= 20% of tumors above the cutoff, but <50%) |  |  | C (>=5% of tumors above the cutoff, but <20%) | C (>=5% of tumors above the cutoff, but <20%) | B (>= 20% of tumors above the cutoff, but <50%) | B (>= 20% of tumors above the cutoff, but <50%) | +++ | ++++ | NSCLC, UEC, AML | Expression score GB ([2]; glioblastoma (N = 24) vs panel of normal tissues): ++; Expression score NHL [2]: ++; Expression score NSCLC [2]: ++; Expression score OC [2]: +++; Presentation score AML ([3]; HLA-A*02 peptides, acute myeloid leukemia (N = 18) vs panel of normal tissues (N = 262)): ++++; Presentation score UEC ([3]; HLA-A*02 peptides, uterine cancer (N = 15) vs panel of normal tissues (N = 262)): ++++
246: peptide found in COG2 (gene looked up) (TVSDVLNSV; listed as Homo sapiens) [compound 246] | A (>=50% of tumors above the cutoff) | A (>=50% of tumors above the cutoff) | A (>=50% of tumors above the cutoff) | A (>=50% of tumors above the cutoff) | A (>=50% of tumors above the cutoff) | A (>=50% of tumors above the cutoff) | A (>=50% of tumors above the cutoff) | C (>=5% of tumors above the cutoff, but <20%) | A (>=50% of tumors above the cutoff) | A (>=50% of tumors above the cutoff) | A (>=50% of tumors above the cutoff) | A (>=50% of tumors above the cutoff) | B (>= 20% of tumors above the cutoff, but <50%) | A (>=50% of tumors above the cutoff) | A (>=50% of tumors above the cutoff) | A (>=50% of tumors above the cutoff) | A (>=50% of tumors above the cutoff) | + | ++++ | GB, NSCLC, CLL | Over-expression category of source gene (target coverage), PAAD [1]: A (>=50% of tumors above the cutoff); Over-expression category of source gene (target coverage), PRAD [1]: A (>=50% of tumors above the cutoff); Over-expression category of source gene (target coverage), READ [1]: A (>=50% of tumors above the cutoff); Over-expression category of source gene (target coverage), SKCM [1]: A (>=50% of tumors above the cutoff); Over-expression category of source gene (target coverage), STAD [1]: A (>=50% of tumors above the cutoff); Expression score BRCA [2]: +; Presentation score CLL ([3]; HLA-A*02 peptides, chronic lymphocytic leukemia (N = 17) vs panel of normal tissues (N = 262)): ++++; Presentation score GB ([3]; HLA-A*02 peptides, glioblastoma (N = 41) vs panel of normal tissues (N = 262)): ++++
